No constants are given. Whether binding was seen depends on the method and setting. Some binding calls cover weakened binding; strength is not graded here. Where a sequence is shown, tags or fusion partners need not be part of it.
Assays:
[1] = target: T1, PUF repeats of FBF-2 (a.a. 121-632) fused to LexA DNA binding domain (C. elegans) (UniProt Q09312); experiment: two-hybrid; SYGL-1 or LST-1 fused to Gal4 AD, PUF repeats of FBF-1 or FBF-2 fused to LexA BD; L40-ura yeast; growth on SD -Leu -Trp -His with 50 mM 3-AT, 4 days at 30°C (HIS3 reporter)
T1 sequence: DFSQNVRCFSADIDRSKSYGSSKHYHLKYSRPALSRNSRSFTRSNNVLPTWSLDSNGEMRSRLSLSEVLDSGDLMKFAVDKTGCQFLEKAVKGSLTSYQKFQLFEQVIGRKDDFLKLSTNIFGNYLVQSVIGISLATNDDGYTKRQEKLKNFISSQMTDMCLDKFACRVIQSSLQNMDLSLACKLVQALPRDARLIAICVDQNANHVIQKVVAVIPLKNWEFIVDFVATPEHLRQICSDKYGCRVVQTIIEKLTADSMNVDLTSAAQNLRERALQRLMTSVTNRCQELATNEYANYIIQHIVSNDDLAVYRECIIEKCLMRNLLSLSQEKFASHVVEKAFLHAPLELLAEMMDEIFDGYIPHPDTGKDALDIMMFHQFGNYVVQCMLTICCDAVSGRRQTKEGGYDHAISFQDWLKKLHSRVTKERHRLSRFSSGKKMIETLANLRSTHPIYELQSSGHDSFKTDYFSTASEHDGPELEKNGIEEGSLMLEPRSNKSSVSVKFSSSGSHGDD

[2] = target: T2, PUF repeats of FBF-1 (a.a. 121-614) fused to LexA DNA binding domain (C. elegans) (UniProt Q9N5M6); experiment: as above
T2 sequence: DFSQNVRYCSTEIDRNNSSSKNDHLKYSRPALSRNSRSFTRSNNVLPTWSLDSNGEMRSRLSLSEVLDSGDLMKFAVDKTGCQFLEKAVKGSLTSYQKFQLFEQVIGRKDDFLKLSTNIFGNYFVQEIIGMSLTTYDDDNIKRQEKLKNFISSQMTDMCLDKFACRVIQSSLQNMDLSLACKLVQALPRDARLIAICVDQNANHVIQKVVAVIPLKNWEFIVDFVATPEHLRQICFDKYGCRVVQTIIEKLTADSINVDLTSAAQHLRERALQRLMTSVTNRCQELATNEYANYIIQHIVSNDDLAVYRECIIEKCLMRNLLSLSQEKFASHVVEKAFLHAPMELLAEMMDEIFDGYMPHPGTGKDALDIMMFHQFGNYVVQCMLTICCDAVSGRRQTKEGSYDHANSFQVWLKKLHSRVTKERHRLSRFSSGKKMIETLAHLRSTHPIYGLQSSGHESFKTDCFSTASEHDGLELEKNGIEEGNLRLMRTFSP

binding [1]: binds
binding [2]: binds
B1: LST-1 full length (a.a. 1-328) fused to Gal4 activation domain (protein, UniProt P91820 1-328)
chain: MCSTFILPPRRNNCNKSSSTIAYSKSQHEAPKQLLQLRSEIKPLIPLNQPSNFWESSQDSGVLSSLSSSPQQRSGLRSQKLHLTYIEKNKRVRAMIPQQQHYHAFDRPTHYNSRKTSGPPPLMRTPSSGFSSASSSENMFSGLTLSDNENKIHEIMDPSVDVDLDMFLLPDCRYKQPVQPSTSTSRNNVSQISGSSRLNGSTRHVAPIVPKVAMPSELSYANVKRSSGYVDYMPTTYNSNVTSNSSAASVPMSPGTWVRCHYCWESYVKLCQRVANLEPLISCDGPWNWHTLYDMQGRVTCPRLWFAQLDRAGSEMVEQMGHARNVPV
